From PMC12448072
Results are given in words; binding and its absence hold for the method and conditions named. For part of these data: In cells and extracts the contact can be indirect. Some entries that bind do so weakly or less than the wild type. For part of these data: Where a sequence is shown, tags or fusion partners need not be part of it. One block for each binder: values may come before it.

How the values were obtained:
PILS3-GFP (A. thaliana) = molecular target: T1, PILS3-GFP (A. thaliana) (UniProt Q9C9K5); experiment: co-IP; PILS3-GFP coexpressed with mScarlet-tagged ERAD components transiently in N. benthamiana; α-RFP or α-GFP IPs, immunoblot with RFP or GFP antibodies
T1 sequence: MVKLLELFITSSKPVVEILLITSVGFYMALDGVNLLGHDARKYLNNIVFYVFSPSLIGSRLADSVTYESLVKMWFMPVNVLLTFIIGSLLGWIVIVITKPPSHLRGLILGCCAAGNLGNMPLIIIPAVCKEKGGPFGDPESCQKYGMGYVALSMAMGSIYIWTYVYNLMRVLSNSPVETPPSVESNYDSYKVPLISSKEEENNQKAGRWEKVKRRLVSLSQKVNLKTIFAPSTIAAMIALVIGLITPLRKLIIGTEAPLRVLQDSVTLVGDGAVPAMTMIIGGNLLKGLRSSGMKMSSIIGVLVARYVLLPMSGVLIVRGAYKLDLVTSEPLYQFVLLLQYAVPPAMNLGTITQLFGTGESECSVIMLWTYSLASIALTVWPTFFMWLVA

PILS3-cYFP (A. thaliana) = molecular target: T2, PILS3-cYFP (A. thaliana) (UniProt Q9C9K5); experiment: split reporter; ratiometric BiFC (rBiFC) in transiently transformed N. benthamiana leaves; PILS3-cYFP with nYFP fusions, mRFP from the same T-DNA as expression control
T2 sequence: T1 sequence

[1] = molecular target: T3, PILS3 (split-ubiquitin bait) (A. thaliana) (UniProt Q9C9K5); experiment: two-hybrid; mating-based split-ubiquitin system for transmembrane proteins in yeast; PILS3 bait (pMetYC-DEST, THY.AP4), preys in PNX35-DEST (THY.AP5); growth on SD -Trp -Leu -Ade -His -Ura at 21°C
T3 sequence: T1 sequence

binding (PILS3-GFP (A. thaliana)): binds
B1: DER2.1-mScarlet (protein, UniProt Q8VZ96 1-244)
chain: MAQAVEEWYKQMPIITRSYLTAAVVTTVGCSLEIISPYNLYLNPTLVVKQYQFWRLVTNFLYFRKMDLDFLFHMFFLARYCKLLEENSFRGKTADFLYMLLFGATVLTGIVLIGGMIPYLSVSFSKIIFLSNSLTFMMVYVWSKQNPYIHMSFLGLFTFTAAYLPWVLLGFSILVGASAWGDFLGMIAGHAYYFLAFVYPRMTDRRPLKTPSFLKALFADEPVVIARPEDVRFAHAPFDEIHQD

binding (PILS3-cYFP (A. thaliana)): binds
B2: DER2.1-nYFP (protein, UniProt Q8VZ96 1-244)
chain: B1 chain

binding [1]: binds
B3: DER2.1 (split-ubiquitin prey) (protein, UniProt Q8VZ96 1-244)
chain: B1 chain

binding (PILS3-GFP (A. thaliana)): binds
B4: DER2.2-mScarlet (protein, UniProt Q9ZS88 1-244)
chain: MAQAVEEWYKQMPIITRSYLTAAVITTVGCSLDIISPYNLYLNPTLVVKQYQYWRLVTNFLYFRKMDLDFMFHMFFLARYCKLLEENSFRGKTADFLYMLLFGASVLTGIVLIGGMIPYLSASFAKIIFLSNSLTFMMVYVWSKQNPYIHMSFLGLFTFTAAYLPWVLLGFSILVGASAWVDLLGMIAGHAYYFLAEVYPRMTNRRPLKTPSFLKALFADEPVVVARPEDVRFAAAPFDEIHQD

binding (PILS3-cYFP (A. thaliana)): binds
B5: DER2.2-nYFP (protein, UniProt Q9ZS88 1-244)
chain: B4 chain

binding [1]: binds
B6: HRD1A (split-ubiquitin prey) (protein, UniProt Q9LW77 1-492)
chain: MIRLRTYAGLSFMATLAVIYHAFSSRGQFYPATVYLSTSKISLVLLLNMCLVLMLSLWHLVKFVFLGSLREAEVERLNEQAWRELMEILFAITIFRQDFSSGFLPLVVTLLLIKALHWLAQKRVEYIETTPSVSKLSHFRIVSFMGFLLLVDSLFMYSSIRHLIQSRQASVSLFFSFEYMILATTTVAIFVKYVFYVTDMLMDGQWEKKPVYTFYLELIRDLLHLSMYICFFFVIFMNYGVPLHLLRELYETFRNFQIRVSDYLRYRKITSNMNDRFPDATPEELTASDATCIICREEMTNAKKLICGHLFHVHCLRSWLERQQTCPTCRALVVPPENATSAAPGQRELHQGSQQGTSSSGNQGSEISSSAGVSNNSLSRHHARLQAAASAASVYGKSMVYPSANTVAWSSGVPGTEQVSTEPDQTLPQHNLPVENSHAYANMSETKLEEMRKSLETHLEILRNRLHFLETRKPESAGEPENKGKSVADAAE
